{"source": "patent US20120035183A1", "about": "“Cancer Treatment Method” (priority 2008, published 2012)", "key": {"[1]": {"tested_on": "JIMT-1 breast tumor cell line", "experiment": "CellTiter-Glo cell growth inhibition assay, JIMT-1", "format": "cell-based", "procedure": "(§1) Breast tumor cell lines, BT-474, SK-Br-3, MDA-MB-453, MDA-MB-231 and T47D and head and neck squamous cell carcinoma line, SCC15 were purchased from the American Type Culture Collection.\n(§2) BT-474, SK-Br-3, JimT-1, MDA-MB-453, MDA-MB-231 and T47D and SCC15 were cultured in a humidified incubator at 37° C. in 95% air, 5% CO2 in the RPMI 1640 containing 10% fetal bovine serum (FBS) media.\n(§3) Cell growth inhibition was determined via CellTiter-Glo cell viability assays. Cells were seeded in a 96-well tissue culture plate (NUNC 136102) with the following plating densities in their respective media at 1000 or 2000 cells/well dependent on cell growth rate. […] The cells were incubated in the presence of the compounds for 3 days. ATP levels were determined by adding Cell Titer Glo® (Promega), incubating for 20 minutes then a luminescent signal was read on the SpectraMax M5 plate with a 0.5 sec integration time. Cell growth was calculated relative to vehicle (DMSO) treated control wells. […] When the CI value was between 0.9 and 1.10, the combination of the two agents was deemed additive. Combination Index values less than 0.9 were considered indicative of synergy. Combination Index values>1.10 indicated antagonism."}, "[2]": {"tested_on": "SK-BR-3 breast tumor cell line", "experiment": "CellTiter-Glo cell growth inhibition assay, SK-BR-3", "format": "cell-based", "procedure": "as §1, §2, §3"}, "[3]": {"tested_on": "BT-474 breast tumor cell line", "experiment": "CellTiter-Glo cell growth inhibition assay, BT-474", "format": "cell-based", "procedure": "as §1, §2, §3"}, "[4]": {"tested_on": "MDA-MB-453 breast tumor cell line", "experiment": "CellTiter-Glo cell growth inhibition assay, MDA-MB-453", "format": "cell-based", "procedure": "as §1, §2, §3"}, "[5]": {"tested_on": "MDA-MB-231 breast tumor cell line", "experiment": "CellTiter-Glo cell growth inhibition assay, MDA-MB-231", "format": "cell-based", "procedure": "as §1, §2, §3"}, "[6]": {"tested_on": "T47D breast tumor cell line", "experiment": "CellTiter-Glo cell growth inhibition assay, T47D", "format": "cell-based", "procedure": "as §1, §2, §3"}, "[7]": {"tested_on": "LL1-BT-474-J4 (J4) breast cell clone", "experiment": "CellTiter-Glo cell growth inhibition assay, LL1-BT-474-J4", "format": "cell-based"}, "[8]": {"tested_on": "SCC15 head and neck squamous cell carcinoma line", "procedure": "as §1, §2, §3"}}, "note": "At least one structure is not confirmed: it was looked up by name or label, or the drawing left a doubt.", "data": [{"compound": "Cc1nc(Nc2ncc(C(=O)Nc3c(C)cccc3Cl)s2)cc(N2CCN(CCO)CC2)n1", "note": "[Dasatinib, N-(2-chloro-6-methylphenyl)-2-[[6-[4-(2-hydroxyethyl)-1-piperazinyl]-2-methyl-4-pyrimidinyl]amino]-5-thiazolecarboxamide,monohydrate]", "values": [{"measurement": "sensitivity of the cell line to the agent (in words)", "setting": "[1]", "result": "sensitive"}, {"measurement": "sensitivity of the cell line to the agent (in words)", "setting": "[2]", "result": "relatively resistant"}, {"measurement": "sensitivity of the cell line to the agent (in words)", "setting": "[3]", "result": "relatively resistant"}, {"measurement": "sensitivity of the cell line to the agent (in words)", "setting": "[4]", "result": "relatively resistant"}, {"measurement": "sensitivity of the cell line to the agent (in words)", "setting": "[5]", "result": "sensitive"}, {"measurement": "sensitivity of the cell line to the agent (in words)", "setting": "[6]", "result": "relatively resistant"}, {"measurement": "sensitivity of the cell line to the agent (in words)", "setting": "[7]", "result": "resistant"}, {"measurement": "sensitivity of the cell line to the agent (in words)", "setting": "[8]", "result": "highly sensitive"}]}]}
